Values from PubChem BioAssay AID1259254 (NCATS, 2017).
Test: 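Finding genes that stop cells copying their DNA twice in one cycle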 (primary screen). Cells: human HCT116 colorectal cancer cells. Knock-down reagent: single siRNA against human genes. Duration: 3 days. Measurement: 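Nuclei stained with Hoechst and imaged; cell-cycle phase assigned by DNA content; G2 share scaled per plate, non-targeting siRNA 0%, GMNN siRNA 100%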. Direction: G2 robust z-score and G2 cells, % of GMNN control: higher = more G2 cells, more excess DNA replication; raw share of cells in G2: higher = larger share of cells with G2 DNA content. Active means: 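An siRNA counts as active if its G2 robust z-score lies at least 5 MADs above the screen median; here such calls match roughly 38% of GMNN control or more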.
This is a random part of about 59,000 reagents tested. Over the whole deposit, about 1,550 (2.6%) were called active. 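G2 share is only a proxy for re-replication; each gene was hit by three separate siRNAs, and active genes were retested.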 Raw values are not corrected between plates. Unmarked entries are inactive. Not given: the amount of reagent.

Gene	PubChem SID	G2 robust z-score	G2 cells, % of GMNN control	raw share of cells in G2 (%)
NPTX2	SID160778215	1.11	10.8	7.74
NPTX2	SID160778216	-0.789	-2.58	3.64
NPTX2	SID160778217	-0.0581	2.56	4.04
MOSMO	SID160773501	-0.683	-1.84	3.37
MOSMO	SID160773502	-0.449	-0.19	3.16
MOSMO	SID160773503	0.361	5.51	5.19
ZBED2	SID160748856	4.88	37.3	20.8
ZBED2	SID160748858	-1.25	-5.85	1.99
ZBED2	SID160748859	-0.592	-1.19	2.38
FTCD	SID160729316	-0.2	1.56	6.37
FTCD	SID160729317	-0.599	-1.25	3.44
FTCD	SID160729319	3.78	29.6	18.1
MAP4K2	SID160715548	-1.36	-6.57	3.44
MAP4K2	SID160715549	-0.503	-0.569	5.22
MAP4K2	SID160715550	-0.549	-0.893	3.71
PSEN1	SID160714934	0.681	7.76	8.26
PSEN1	SID160715042	0.719	8.03	7.75
PSEN1	SID160731562	-0.75	-2.31	3.05
SLITRK1	SID160755004	0.722	8.05	7.52
SLITRK1	SID160755005	-0.299	0.866	5.34
SLITRK1	SID160755006	1.94	16.6	13.4
LYPLA2	SID160730381	-0.808	-2.72	5.28
LYPLA2	SID160730382	4.53	34.8	15.8
LYPLA2	SID160730385	3.21	25.6	12.6
THSD7A	SID160761797	-0.275	1.03	3.95
THSD7A	SID160761798	2.24	18.7	9.55
THSD7A	SID160761799	-0.199	1.56	3.69
CRISP2	SID160718305	-0.618	-1.38	4.52
CRISP2	SID160718306	1.47	13.3	9.16
CRISP2	SID160718307	4.37	33.7	15.3
TTC16	SID160759617	-0.0874	2.35	5.69
TTC16	SID160759619	3.65	28.6	19.6
TTC16	SID160759620	-0.327	0.667	4.95
NVL	SID160778312	0.756	8.29	8.11
NVL	SID160778313	-0.379	0.3	5.32
NVL	SID160778315	-0.0792	2.41	4.02
KIAA1586	SID160746588	-0.85	-3.01	3.16
KIAA1586	SID160746589	0.315	5.19	6.94
KIAA1586	SID160746590	-0.399	0.162	3.08
PLAG1	SID160714415	3.85	30	15.4
PLAG1	SID160714416	0.896	9.27	9.19
PLAG1	SID160714419	-0.575	-1.08	2.72
THEM6	SID160733501	5.24 (active)	39.8	16.4
THEM6	SID160740636	-1.72	-9.1	0.346
THEM6	SID160740637	1.75	15.3	10.7
RRM2B	SID160731324	-0.347	0.528	4
RRM2B	SID160739594	-0.671	-1.76	3.59
RRM2B	SID160739595	0.124	3.84	7.7
LONP1	SID160722031	1.74	15.2	10.9
LONP1	SID160722032	-1.03	-4.26	3.4
LONP1	SID160722033	-0.119	2.13	4.71
SLC38A9	SID160759303	0.337	5.34	5.62
SLC38A9	SID160759304	-0.841	-2.95	2
SLC38A9	SID160759305	-0.5	-0.549	2.88
LAMB2	SID160731190	-0.697	-1.94	2.4
LAMB2	SID160776506	0.577	7.03	6.25
LAMB2	SID160776507	0.494	6.45	7.87
MYOG	SID160777737	-0.475	-0.374	5.22
MYOG	SID160777738	-0.896	-3.34	2.09
MYOG	SID160777739	-0.427	-0.0393	5.46
GDF3	SID160722530	2.38	19.7	14.3
GDF3	SID160722532	-0.333	0.627	4.21
GDF3	SID160722533	0.488	6.4	5.73
TLN1	SID160718121	9.26 (active)	68.1	30.1
TLN1	SID160718122	6.88 (active)	51.4	22.1
TLN1	SID160718123	3.67	28.8	15.6
MTCH1	SID160736886	1.31	12.2	11.7
MTCH1	SID160736887	-1.21	-5.55	2.17
MTCH1	SID160736888	3.41	26.9	13.1
PPIAP35	SID160732438	2.14	18	8.81
PPIAP35	SID160732439	-0.119	2.13	3.35
PPIAP35	SID160756711	-0.0153	2.86	5.25
KRTAP2-2	SID160753170	1.4	12.8	11.6
KRTAP2-2	SID160753171	-0.0355	2.72	6.13
KRTAP2-2	SID160753172	0.648	7.53	7.32
CPOX	SID160747612	0.189	4.3	6.49
CPOX	SID160747624	0.856	8.99	8.28
CPOX	SID160747635	-1	-4.09	2.69
DYNC1LI2	SID160755504	0.66	7.61	6.72
DYNC1LI2	SID160755516	0.693	7.84	7.76
DYNC1LI2	SID160755526	3.43	27.1	14.9
RPL7AP27	SID160759264	5.68 (active)	42.9	18.2
RPL7AP27	SID160759265	6.23 (active)	46.8	17.4
RPL7AP27	SID160759267	2.76	22.4	10.9
CDK5RAP2	SID160744274	-0.145	1.95	5.27
CDK5RAP2	SID160744275	-0.782	-2.53	3.09
CDK5RAP2	SID160744277	-0.291	0.917	3.43

Quoted from the entries so far for reference:
Gene	PubChem SID	G2 robust z-score	G2 cells, % of GMNN control	raw share of cells in G2 (%)
NPTX2	SID160778216	-0.789	-2.58	3.64
NPTX2	SID160778217	-0.0581	2.56	4.04
MOSMO	SID160773501	-0.683	-1.84	3.37
MOSMO	SID160773502	-0.449	-0.19	3.16
MOSMO	SID160773503	0.361	5.51	5.19
ZBED2	SID160748856	4.88	37.3	20.8
ZBED2	SID160748858	-1.25	-5.85	1.99
ZBED2	SID160748859	-0.592	-1.19	2.38
FTCD	SID160729316	-0.2	1.56	6.37
FTCD	SID160729317	-0.599	-1.25	3.44
FTCD	SID160729319	3.78	29.6	18.1
MAP4K2	SID160715548	-1.36	-6.57	3.44
